{"source": "PubChem BioAssay AID1259308, NCATS | 2017", "screen": "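Knock-downs that increase output of a recombinant reporter protein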 (primary screen)", "system": "human HEK293 embryonic kidney cells stably expressing firefly luciferase (HEK-CMV-Luc2-Hygro)", "knock-down reagent": "single siRNA against human genes, 0.8 pmol siRNA per well", "duration": "72 h", "detection": "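Luciferase light (ONE-Glo) measured on one replicate plate set and viability (CellTiter-Glo) on the other, scaled to a negative control siRNA, with robust z-scores and luciferase per cell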", "direction": "total luciferase, z-score and total luciferase, % of control: higher = more reporter protein produced", "active means": "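Active when the median/MAD z-score for overall luciferase is greater than 3; a gene was taken forward for validation with new siRNAs if at least two of its three siRNAs passed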", "meaning of the calls": "active = raised luciferase; inactive = no rise", "note": "The deposit covers about 59,000 reagents; this is a random part of them. Of all reagents, about 1,510 (2.6%) are marked active. 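Calls use total luciferase alone and ignore viability, so some active siRNAs may act by altering cell number.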 A number with no mark means an inactive call. The numbers tell different reagents against one gene apart. Further read-outs or replicates are left out here."}
{"gene":"EBLN2","siRNA no.":1,"total luciferase, z-score":0.184,"total luciferase, % of control":85.5}
{"gene":"EBLN2","siRNA no.":2,"total luciferase, z-score":-1.24,"total luciferase, % of control":57.2}
{"gene":"EBLN2","siRNA no.":3,"total luciferase, z-score":-0.895,"total luciferase, % of control":64.1}
{"gene":"UNC119","siRNA no.":1,"total luciferase, z-score":1.11,"total luciferase, % of control":104}
{"gene":"UNC119","siRNA no.":2,"total luciferase, z-score":-2.64,"total luciferase, % of control":29.5}
{"gene":"UNC119","siRNA no.":3,"total luciferase, z-score":0.426,"total luciferase, % of control":90.4}
{"gene":"ABCF3","siRNA no.":1,"total luciferase, z-score":-0.57,"total luciferase, % of control":70.5}
{"gene":"ABCF3","siRNA no.":2,"total luciferase, z-score":0.202,"total luciferase, % of control":85.9}
{"gene":"ABCF3","siRNA no.":3,"total luciferase, z-score":0.392,"total luciferase, % of control":89.7}
{"gene":"USP34","siRNA no.":1,"total luciferase, z-score":-0.414,"total luciferase, % of control":73.6}
{"gene":"USP34","siRNA no.":2,"total luciferase, z-score":-0.04,"total luciferase, % of control":81.1}
{"gene":"USP34","siRNA no.":3,"total luciferase, z-score":-0.346,"total luciferase, % of control":75}
{"gene":"GJB4","siRNA no.":1,"total luciferase, z-score":-0.65,"total luciferase, % of control":69}
{"gene":"GJB4","siRNA no.":2,"total luciferase, z-score":-0.453,"total luciferase, % of control":72.9}
{"gene":"GJB4","siRNA no.":3,"total luciferase, z-score":0.714,"total luciferase, % of control":96.1}
{"gene":"PEF1","siRNA no.":1,"total luciferase, z-score":-0.912,"total luciferase, % of control":63.7}
{"gene":"PEF1","siRNA no.":2,"total luciferase, z-score":-0.461,"total luciferase, % of control":72.7}
{"gene":"PEF1","siRNA no.":3,"total luciferase, z-score":-0.988,"total luciferase, % of control":62.2}
{"gene":"FAM227B","siRNA no.":1,"total luciferase, z-score":-0.788,"total luciferase, % of control":66.2}
{"gene":"FAM227B","siRNA no.":2,"total luciferase, z-score":-0.563,"total luciferase, % of control":70.7}
{"gene":"FAM227B","siRNA no.":3,"total luciferase, z-score":0.114,"total luciferase, % of control":84.1}
{"gene":"MYBPHL","siRNA no.":1,"total luciferase, z-score":0.869,"total luciferase, % of control":99.2}
{"gene":"MYBPHL","siRNA no.":2,"total luciferase, z-score":-2.33,"total luciferase, % of control":35.6}
{"gene":"MYBPHL","siRNA no.":3,"total luciferase, z-score":0.141,"total luciferase, % of control":84.7}
{"gene":"HS3ST3B1","siRNA no.":1,"total luciferase, z-score":-1.02,"total luciferase, % of control":61.6}
{"gene":"HS3ST3B1","siRNA no.":2,"total luciferase, z-score":1.08,"total luciferase, % of control":103}
{"gene":"HS3ST3B1","siRNA no.":3,"total luciferase, z-score":0.71,"total luciferase, % of control":96}
{"gene":"CTRC","siRNA no.":1,"total luciferase, z-score":0.397,"total luciferase, % of control":89.8}
{"gene":"CTRC","siRNA no.":2,"total luciferase, z-score":"4.12 (active)","total luciferase, % of control":164}
{"gene":"CTRC","siRNA no.":3,"total luciferase, z-score":-0.649,"total luciferase, % of control":69}
{"gene":"HTN1","siRNA no.":1,"total luciferase, z-score":1,"total luciferase, % of control":102}
{"gene":"HTN1","siRNA no.":2,"total luciferase, z-score":0.0694,"total luciferase, % of control":83.3}
{"gene":"HTN1","siRNA no.":3,"total luciferase, z-score":-1.42,"total luciferase, % of control":53.7}
{"gene":"VPS13B","siRNA no.":1,"total luciferase, z-score":-0.452,"total luciferase, % of control":72.9}
{"gene":"VPS13B","siRNA no.":2,"total luciferase, z-score":-1.7,"total luciferase, % of control":48.2}
{"gene":"VPS13B","siRNA no.":3,"total luciferase, z-score":0.337,"total luciferase, % of control":88.6}
{"gene":"TMEM50B","siRNA no.":1,"total luciferase, z-score":2.34,"total luciferase, % of control":128}
{"gene":"TMEM50B","siRNA no.":2,"total luciferase, z-score":0.807,"total luciferase, % of control":97.9}
{"gene":"TMEM50B","siRNA no.":3,"total luciferase, z-score":-0.526,"total luciferase, % of control":71.4}
{"gene":"IER3","siRNA no.":1,"total luciferase, z-score":-0.881,"total luciferase, % of control":64.4}
{"gene":"IER3","siRNA no.":2,"total luciferase, z-score":-0.871,"total luciferase, % of control":64.6}
{"gene":"IER3","siRNA no.":3,"total luciferase, z-score":0.369,"total luciferase, % of control":89.2}
